Reference: PubChem BioAssay AID1508597 (Cure First, 2020)

Assay: 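Survival screen with siRNA in ovarian cancer cells derived from patients, with or without rucaparib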 (primary screen)
System: human ovarian carcinoma lines grown from tumours: OCI-P5x (papillary serous) and OCI-C5x (clear cell)
Knock-down reagent: siRNA pool against human genes, 1.25 pmol siRNA per well
Timing: 72 h or 96 h, depending on the cell culture
Treatment: rucaparib 20 µM (about IC30) or vehicle, present until read-out
Rucaparib or vehicle: Rucaparib
Cell line: OCI-P5x (serous)
Read-out: 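Luminescent ATP-based viability assay read 72 or 96 h after transfection, depending on culture, given as normalised percent viability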
Direction: viability, normalised: higher = more viable cells remaining
Call rule: 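a well counts as a hit if its normalised viability is under 80 percent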
Calls: active = viability under 80%; inactive = viability 80% or more
This is a random part of the about 2,100 reagents, under one of the conditions tested. 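Calls flag viability under 80% in either arm, not effects specific to rucaparib; the reference for percent is not stated.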 Some reagents were tested in more than one well and are listed for each. No sequences are given here. Not stated in the record: the 100% reference.

Which result is listed for NAP1L1 (GeneID 4673), technical replicate 1?
viability, normalised (%): 30.5; outcome: active

For NAP1L1 (GeneID 4673), technical replicate 2, what does the deposit list?
viability, normalised (%): 37.9; outcome: active

How did the screen score NAP1L1 (GeneID 4673), technical replicate 3?
viability, normalised (%): 37.6; outcome: active

With DDX53 (GeneID 168400), technical replicate 1, what was measured?
viability, normalised (%): 50.2; outcome: active

How did the screen score DDX53 (GeneID 168400), technical replicate 2?
viability, normalised (%): 70.5; outcome: active

For DDX53 (GeneID 168400), technical replicate 3, how do the results read?
viability, normalised (%): 52.1; outcome: active

What is on record for MAPK12 (GeneID 6300), technical replicate 1?
viability, normalised (%): 90; outcome: inactive

For MAPK12 (GeneID 6300), technical replicate 2, how do the results read?
viability, normalised (%): 84.8; outcome: inactive

How did the screen score MAPK12 (GeneID 6300), technical replicate 3?
viability, normalised (%): 85.9; outcome: inactive

What did the screen give for PPM1D (GeneID 8493), technical replicate 1?
viability, normalised (%): 96.1; outcome: inactive

What did the screen give for PPM1D (GeneID 8493), technical replicate 2?
viability, normalised (%): 111; outcome: inactive

For PPM1D (GeneID 8493), technical replicate 3, what was measured?
viability, normalised (%): 102; outcome: inactive

Which result is listed for PAK4 (GeneID 10298), technical replicate 1?
viability, normalised (%): 103; outcome: inactive

What did the screen give for PAK4 (GeneID 10298), technical replicate 2?
viability, normalised (%): 81; outcome: inactive

How did the screen score PAK4 (GeneID 10298), technical replicate 3?
viability, normalised (%): 97.3; outcome: inactive

With PIK3CA (GeneID 5290), technical replicate 1, what does the deposit list?
viability, normalised (%): 76.9; outcome: active

With PIK3CA (GeneID 5290), technical replicate 1, what does the deposit list?
viability, normalised (%): 99.1; outcome: inactive

With PIK3CA (GeneID 5290), technical replicate 2, how do the results read?
viability, normalised (%): 90.5; outcome: inactive

For PIK3CA (GeneID 5290), technical replicate 2, how do the results read?
viability, normalised (%): 82.6; outcome: inactive

How did the screen score PIK3CA (GeneID 5290), technical replicate 3?
viability, normalised (%): 107; outcome: inactive

What did the screen give for PIK3CA (GeneID 5290), technical replicate 3?
viability, normalised (%): 76.9; outcome: active

How did the screen score TH (GeneID 7054), technical replicate 1?
viability, normalised (%): 59.5; outcome: active

With TH (GeneID 7054), technical replicate 2, what does the deposit list?
viability, normalised (%): 49.1; outcome: active

With TH (GeneID 7054), technical replicate 3, what does the deposit list?
viability, normalised (%): 59; outcome: active

Entries listed so far whose target name begins with D or d (3):
DDX53 (GeneID 168400), technical replicate 1 — viability, normalised (%): 50.2; outcome: active
DDX53 (GeneID 168400), technical replicate 2 — viability, normalised (%): 70.5; outcome: active
DDX53 (GeneID 168400), technical replicate 3 — viability, normalised (%): 52.1; outcome: active

Further results:
For CFAP46 (GeneID 54777), technical replicate 1, how do the results read?
viability, normalised (%): 67.7; outcome: active

For CFAP46 (GeneID 54777), technical replicate 2, what was measured?
viability, normalised (%): 89.4; outcome: inactive

For CFAP46 (GeneID 54777), technical replicate 3, what does the deposit list?
viability, normalised (%): 83.9; outcome: inactive

What did the screen give for AURKA (GeneID 6790), technical replicate 1?
viability, normalised (%): 46.8; outcome: active

How did the screen score AURKA (GeneID 6790), technical replicate 1?
viability, normalised (%): 99.6; outcome: inactive

With AURKA (GeneID 6790), technical replicate 2, what was measured?
viability, normalised (%): 59.7; outcome: active

What did the screen give for AURKA (GeneID 6790), technical replicate 2?
viability, normalised (%): 84.2; outcome: inactive

Which result is listed for AURKA (GeneID 6790), technical replicate 3?
viability, normalised (%): 59.6; outcome: active

With AURKA (GeneID 6790), technical replicate 3, what does the deposit list?
viability, normalised (%): 81; outcome: inactive

What is on record for F10 (GeneID 2159), technical replicate 1?
viability, normalised (%): 39.6; outcome: active

With F10 (GeneID 2159), technical replicate 2, how do the results read?
viability, normalised (%): 43.6; outcome: active

For F10 (GeneID 2159), technical replicate 3, how do the results read?
viability, normalised (%): 63.5; outcome: active

How did the screen score PBRM1 (GeneID 55193), technical replicate 1?
viability, normalised (%): 49.3; outcome: active

With PBRM1 (GeneID 55193), technical replicate 2, how do the results read?
viability, normalised (%): 44.7; outcome: active

With PBRM1 (GeneID 55193), technical replicate 3, how do the results read?
viability, normalised (%): 30.3; outcome: active

What did the screen give for TYRO3 (GeneID 7301), technical replicate 1?
viability, normalised (%): 86.4; outcome: inactive

For TYRO3 (GeneID 7301), technical replicate 2, what was measured?
viability, normalised (%): 87.4; outcome: inactive

What did the screen give for TYRO3 (GeneID 7301), technical replicate 3?
viability, normalised (%): 103; outcome: inactive
